This passage reports binding results from article doi:10.1101/2022.12.14.520480.

The chains behind the UniProt entries cited, without tags or fusion partners.
UniProt Q9GZU1: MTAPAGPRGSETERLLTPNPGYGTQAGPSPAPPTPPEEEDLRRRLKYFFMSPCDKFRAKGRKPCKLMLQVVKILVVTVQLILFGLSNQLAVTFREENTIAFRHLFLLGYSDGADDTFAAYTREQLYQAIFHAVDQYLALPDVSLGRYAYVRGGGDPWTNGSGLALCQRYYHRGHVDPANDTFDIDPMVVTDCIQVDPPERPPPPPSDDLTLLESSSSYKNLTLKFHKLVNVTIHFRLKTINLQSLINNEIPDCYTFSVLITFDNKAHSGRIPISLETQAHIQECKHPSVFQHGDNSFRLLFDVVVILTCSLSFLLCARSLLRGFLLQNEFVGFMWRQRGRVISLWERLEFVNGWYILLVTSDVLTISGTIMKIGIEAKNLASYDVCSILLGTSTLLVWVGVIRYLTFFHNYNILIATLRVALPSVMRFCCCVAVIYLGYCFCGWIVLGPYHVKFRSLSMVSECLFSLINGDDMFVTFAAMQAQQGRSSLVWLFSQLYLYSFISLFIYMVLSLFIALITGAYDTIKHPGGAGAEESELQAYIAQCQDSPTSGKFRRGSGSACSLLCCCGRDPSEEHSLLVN

Results are given in words; binding and its absence hold for the method and conditions named. Binding seen in cells or lysates may run through a third protein. Here binding means that the protein was enriched with, or labelled near, the bait; the list need not be complete.

One assay has as its target T1, APEX2-TBC1D15 (UniProt Q8TC07).
T1 sequence: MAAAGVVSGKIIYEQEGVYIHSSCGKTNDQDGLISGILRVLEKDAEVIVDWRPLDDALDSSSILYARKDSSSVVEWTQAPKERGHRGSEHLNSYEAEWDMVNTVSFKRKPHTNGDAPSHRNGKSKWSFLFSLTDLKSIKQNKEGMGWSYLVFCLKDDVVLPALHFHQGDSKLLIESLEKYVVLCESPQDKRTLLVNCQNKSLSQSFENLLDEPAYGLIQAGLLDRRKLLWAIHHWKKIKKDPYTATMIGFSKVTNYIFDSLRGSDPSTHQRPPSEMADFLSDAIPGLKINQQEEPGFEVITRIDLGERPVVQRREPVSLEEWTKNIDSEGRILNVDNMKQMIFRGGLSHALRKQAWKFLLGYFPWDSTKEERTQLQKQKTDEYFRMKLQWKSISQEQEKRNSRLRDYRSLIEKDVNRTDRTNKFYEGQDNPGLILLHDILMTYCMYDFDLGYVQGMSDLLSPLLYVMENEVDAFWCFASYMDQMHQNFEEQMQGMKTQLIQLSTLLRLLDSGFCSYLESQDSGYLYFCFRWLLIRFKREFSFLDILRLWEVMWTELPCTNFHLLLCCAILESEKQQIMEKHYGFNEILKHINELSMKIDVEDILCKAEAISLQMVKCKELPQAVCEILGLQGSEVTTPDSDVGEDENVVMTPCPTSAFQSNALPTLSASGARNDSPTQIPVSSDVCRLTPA
In words: proximity labelling.

Another assay addresses TRPML1-APEX2 (UniProt Q9GZU1). Nature of the assay: proximity labelling.

B1: PICALM (protein, UniProt Q13492 1-652)
chain: MSGQSLTDRITAAQHSVTGSAVSKTVCKATTHEIMGPKKKHLDYLIQCTNEMNVNIPQLADSLFERTTNSSWVVVFKSLITTHHLMVYGNERFIQYLASRNTLFNLSNFLDKSGLQGYDMSTFIRRYSRYLNEKAVSYRQVAFDFTKVKRGADGVMRTMNTEKLLKTVPIIQNQMDALLDFNVNSNELTNGVINAAFMLLFKDAIRLFAAYNEGIINLLEKYFDMKKNQCKEGLDIYKKFLTRMTRISEFLKVAEQVGIDRGDIPDLSQAPSSLLDALEQHLASLEGKKIKDSTAASRATTLSNAVSSLASTGLSLTKVDEREKQAALEEEQARLKALKEQRLKELAKKPHTSLTTAASPVSTSAGGIMTAPAIDIFSTPSSSNSTSKLPNDLLDLQQPTFHPSVHPMSTASQVASTWGDPFSATVDAVDDAIPSLNPFLTKSSGDVHLSISSDVSTFTTRTPTHEMFVGFTPSPVAQPHPSAGLNVDFESVFGNKSTNVIVDSGGFDELGGLLKPTVASQNQNLPVAKLPPSKLVSDDLDSSLANLVGNLGIGNGTTKNDVNWSQPGEKKLTGGSNWQPKVAPTTAWNAATMAPPVMAYPATTPTGMIGYGIPPQMGSVPVMTQPTLIYSQPVMRPPNPFGPVSGAQIQFM
For the molecule B1, in the assay with APEX2-TBC1D15, the binding result was “binds”.

B2: HIP1 (protein, UniProt O00291 1-1037)
chain: MDRMASSMKQVPNPLPKVLSRRGVGAGLEAAERESFERTQTVSINKAINTQEVAVKEKHARTCILGTHHEKGAQTFWSVVNRLPLSSNAVLCWKFCHVFHKLLRDGHPNVLKDSLRYRNELSDMSRMWGHLSEGYGQLCSIYLKLLRTKMEYHTKNPRFPGNLQMSDRQLDEAGESDVNNFFQLTVEMFDYLECELNLFQTVFNSLDMSRSVSVTAAGQCRLAPLIQVILDCSHLYDYTVKLLFKLHSCLPADTLQGHRDRFMEQFTKLKDLFYRSSNLQYFKRLIQIPQLPENPPNFLRASALSEHISPVVVIPAEASSPDSEPVLEKDDLMDMDASQQNLFDNKFDDIFGSSFSSDPFNFNSQNGVNKDEKDHLIERLYREISGLKAQLENMKTESQRVVLQLKGHVSELEADLAEQQHLRQQAADDCEFLRAELDELRRQREDTEKAQRSLSEIERKAQANEQRYSKLKEKYSELVQNHADLLRKNAEVTKQVSMARQAQVDLEREKKELEDSLERISDQGQRKTQEQLEVLESLKQELATSQRELQVLQGSLETSAQSEANWAAEFAELEKERDSLVSGAAHREEELSALRKELQDTQLKLASTEESMCQLAKDQRKMLLVGSRKAAEQVIQDALNQLEEPPLISCAGSADHLLSTVTSISSCIEQLEKSWSQYLACPEDISGLLHSITLLAHLTSDAIAHGATTCLRAPPEPADSLTEACKQYGRETLAYLASLEEEGSLENADSTAMRNCLSKIKAIGEELLPRGLDIKQEELGDLVDKEMAATSAAIETATARIEEMLSKSRAGDTGVKLEVNERILGCCTSLMQAIQVLIVASKDLQREIVESGRGTASPKEFYAKNSRWTEGLISASKAVGWGATVMVDAADLVVQGRGKFEELMVCSHEIAASTAQLVAASKVKADKDSPNLAQLQQASRGVNQATAGVVASTISGKSQIEETDNMDFSSMTLTQIKRQEMDSQVRVLELENELQKERQKLGELRKKHYELAGVAEGWEEGTEASPPTLQEVVTEKE
Consider B2, for which the binding result with APEX2-TBC1D15 was “binds”.

B3: TBC1D15 (endogenous) (protein, UniProt Q8TC07 1-691)
chain: T1 sequence
Regarding B3, the binding result in the assay with TRPML1-APEX2 is “binds”.
